# Laboratory results: patent US20220177596A1
# Sequences of proteins named here, by UniProt entry; tags and fusion partners are left off. A change or cut given only in a name is not applied to a line headed by its entry.
# UniProt P25942: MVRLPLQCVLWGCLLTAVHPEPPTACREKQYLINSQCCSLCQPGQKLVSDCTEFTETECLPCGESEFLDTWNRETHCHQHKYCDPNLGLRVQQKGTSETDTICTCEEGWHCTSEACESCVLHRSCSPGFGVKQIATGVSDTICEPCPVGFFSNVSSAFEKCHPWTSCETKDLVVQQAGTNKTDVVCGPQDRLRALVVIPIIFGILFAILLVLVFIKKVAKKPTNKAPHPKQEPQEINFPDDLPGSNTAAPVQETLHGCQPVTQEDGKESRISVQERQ
# These are yes or no findings as the source states them, for the method shown. Some results given as binding are weak or reduced against the parent protein; the word gives no strength.
# Biological target: human-CD40 monomer (human) (UniProt P25942)
# Assay: SPR 2 pt screen
row,Binder,binding
1,"humanized Y1238 hz28 (hz-HC6 / hz-LC3), IgG1.3f (antibody, V domains shown) VH: QVQLVQSGAEVKKPGASVKVSCKASGYAFTNYLIEWVRQRPGQGLEWMGVINPGSGGTNYNEKFKGRVTLTADKSISTAYMELSRLRSDDTAVYYCARSQLGRRFDYWGQGTLVTVSS VL: DIQMTQSPSSLSASVGDRVTITCKASQDVRTGVAWYQQKPGQSPKLLIYSASYRNTGVPSRFSGSRSGTDFTFTISSLQPEDIAVYYCQQHYSPPYTFGGGTKVEIK",binds
2,"humanized Y1238 hz29 (hz-HC6 / hz-LC4), IgG1.3f (antibody, V domains shown) VH: QVQLVQSGAEVKKPGASVKVSCKASGYAFTNYLIEWVRQRPGQGLEWMGVINPGSGGTNYNEKFKGRVTLTADKSISTAYMELSRLRSDDTAVYYCARSQLGRRFDYWGQGTLVTVSS VL: DIQMTQSPSSLSASVGDRVTITCKASQDVRTGVAWYQQKPGQSPKLLIYSASYRNTGVPSRFSGSRSGTDFTFTISSLQAEDIAVYYCQQHYSPPYTFGGGTKVEIK",binds
3,"humanized Y1238 hz30 (hz-HC6 / hz-LC5), IgG1.3f (antibody, V domains shown) VH: QVQLVQSGAEVKKPGASVKVSCKASGYAFTNYLIEWVRQRPGQGLEWMGVINPGSGGTNYNEKFKGRVTLTADKSISTAYMELSRLRSDDTAVYYCARSQLGRRFDYWGQGTLVTVSS VL: DIQMTQSPSSLSASVGDRVTITCKASQDVRTGVAWYQQKPGQAPKLLIYSASYRNTGVPSRFSGSRSGTDFTFTISSLQPEDIAVYYCQQHYSPPYTFGGGTKVEIK",binds
4,"humanized Y1238 hz31 (hz-HC7 / hz-LC1), IgG1.3f (antibody, V domains shown) VH: QVQLVQSGAEVVKPGASVKVSCKASGYAFTNYLIEWVRQRPGQGLEWMGVINPGSGGTNYNEKFKGRVTMTADKSSSTAYMQLSRLRSDDTAVYFCARSQLGRRFDYWGQGTLVTVSS VL: DIQMTQSPSSLSASVGDRVTITCKASQDVRTGVAWYQQKPGKAPKLLIYSASYRNTGVPSRFSGSGSGTDFTFTISSLQPEDIATYYCQQHYSPPYTFGGGTKVEIK",binds
5,"humanized Y1238 hz32 (hz-HC7 / hz-LC2), IgG1.3f (antibody, V domains shown) VH: QVQLVQSGAEVVKPGASVKVSCKASGYAFTNYLIEWVRQRPGQGLEWMGVINPGSGGTNYNEKFKGRVTMTADKSSSTAYMQLSRLRSDDTAVYFCARSQLGRRFDYWGQGTLVTVSS VL: DIQMTQSPSSLSASVGDRVTITCKASQDVRTGVAWYQQKPGKAPKLLIYSASYRNTGVPSRFSGSRSGTDFTFTISSLQPEDIATYYCQQHYSPPYTFGGGTKVEIK",binds
6,"humanized Y1238 hz33 (hz-HC7 / hz-LC3), IgG1.3f (antibody, V domains shown) VH: QVQLVQSGAEVVKPGASVKVSCKASGYAFTNYLIEWVRQRPGQGLEWMGVINPGSGGTNYNEKFKGRVTMTADKSSSTAYMQLSRLRSDDTAVYFCARSQLGRRFDYWGQGTLVTVSS VL: DIQMTQSPSSLSASVGDRVTITCKASQDVRTGVAWYQQKPGQSPKLLIYSASYRNTGVPSRFSGSRSGTDFTFTISSLQPEDIAVYYCQQHYSPPYTFGGGTKVEIK",binds
7,"humanized Y1238 hz34 (hz-HC7 / hz-LC4), IgG1.3f (antibody, V domains shown) VH: QVQLVQSGAEVVKPGASVKVSCKASGYAFTNYLIEWVRQRPGQGLEWMGVINPGSGGTNYNEKFKGRVTMTADKSSSTAYMQLSRLRSDDTAVYFCARSQLGRRFDYWGQGTLVTVSS VL: DIQMTQSPSSLSASVGDRVTITCKASQDVRTGVAWYQQKPGQSPKLLIYSASYRNTGVPSRFSGSRSGTDFTFTISSLQAEDIAVYYCQQHYSPPYTFGGGTKVEIK",binds
8,"humanized Y1238 hz35 (hz-HC7 / hz-LC5), IgG1.3f (antibody, V domains shown) VH: QVQLVQSGAEVVKPGASVKVSCKASGYAFTNYLIEWVRQRPGQGLEWMGVINPGSGGTNYNEKFKGRVTMTADKSSSTAYMQLSRLRSDDTAVYFCARSQLGRRFDYWGQGTLVTVSS VL: DIQMTQSPSSLSASVGDRVTITCKASQDVRTGVAWYQQKPGQAPKLLIYSASYRNTGVPSRFSGSRSGTDFTFTISSLQPEDIAVYYCQQHYSPPYTFGGGTKVEIK",binds
9,"humanized Y1238 hz36 (hz-HC8 / hz-LC1), IgG1.3f (antibody, V domains shown) VH: QVQLVQSGAEVVKPGASVKVSCKASGYAFTNYLIEWVRQRPGQGLEWMGVINPGSGGTNYNEKFKGRVTLTADKSSSTAYMQLSRLRSDDTAVYFCARSQLGRRFDYWGQGTLVTVSS VL: DIQMTQSPSSLSASVGDRVTITCKASQDVRTGVAWYQQKPGKAPKLLIYSASYRNTGVPSRFSGSGSGTDFTFTISSLQPEDIATYYCQQHYSPPYTFGGGTKVEIK",binds
10,"humanized Y1238 hz37 (hz-HC8 / hz-LC2), IgG1.3f (antibody, V domains shown) VH: QVQLVQSGAEVVKPGASVKVSCKASGYAFTNYLIEWVRQRPGQGLEWMGVINPGSGGTNYNEKFKGRVTLTADKSSSTAYMQLSRLRSDDTAVYFCARSQLGRRFDYWGQGTLVTVSS VL: DIQMTQSPSSLSASVGDRVTITCKASQDVRTGVAWYQQKPGKAPKLLIYSASYRNTGVPSRFSGSRSGTDFTFTISSLQPEDIATYYCQQHYSPPYTFGGGTKVEIK",binds
11,"humanized Y1238 hz38 (hz-HC8 / hz-LC3), IgG1.3f (antibody, V domains shown) VH: QVQLVQSGAEVVKPGASVKVSCKASGYAFTNYLIEWVRQRPGQGLEWMGVINPGSGGTNYNEKFKGRVTLTADKSSSTAYMQLSRLRSDDTAVYFCARSQLGRRFDYWGQGTLVTVSS VL: DIQMTQSPSSLSASVGDRVTITCKASQDVRTGVAWYQQKPGQSPKLLIYSASYRNTGVPSRFSGSRSGTDFTFTISSLQPEDIAVYYCQQHYSPPYTFGGGTKVEIK",binds
12,"humanized Y1238 hz39 (hz-HC8 / hz-LC4), IgG1.3f (antibody, V domains shown) VH: QVQLVQSGAEVVKPGASVKVSCKASGYAFTNYLIEWVRQRPGQGLEWMGVINPGSGGTNYNEKFKGRVTLTADKSSSTAYMQLSRLRSDDTAVYFCARSQLGRRFDYWGQGTLVTVSS VL: DIQMTQSPSSLSASVGDRVTITCKASQDVRTGVAWYQQKPGQSPKLLIYSASYRNTGVPSRFSGSRSGTDFTFTISSLQAEDIAVYYCQQHYSPPYTFGGGTKVEIK",binds
13,"humanized Y1238 hz40 (hz-HC8 / hz-LC5), IgG1.3f (antibody, V domains shown) VH: QVQLVQSGAEVVKPGASVKVSCKASGYAFTNYLIEWVRQRPGQGLEWMGVINPGSGGTNYNEKFKGRVTLTADKSSSTAYMQLSRLRSDDTAVYFCARSQLGRRFDYWGQGTLVTVSS VL: DIQMTQSPSSLSASVGDRVTITCKASQDVRTGVAWYQQKPGQAPKLLIYSASYRNTGVPSRFSGSRSGTDFTFTISSLQPEDIAVYYCQQHYSPPYTFGGGTKVEIK",binds
14,"humanized Y1238 hz41 (hz-HC9 / hz-LC1), IgG1.3f (antibody, V domains shown) VH: QVQLVQSGAEVVKPGASVKVSCKASGYAFTNYLIEWVRQRPGQGLEWMGVINPGSGGTNYNEKFKGRVTLTADKSSSTAYMQLSRLRSDDTAVYFCARSQLGRRFDYWGQGTTVTVSS VL: DIQMTQSPSSLSASVGDRVTITCKASQDVRTGVAWYQQKPGKAPKLLIYSASYRNTGVPSRFSGSGSGTDFTFTISSLQPEDIATYYCQQHYSPPYTFGGGTKVEIK",binds
15,"humanized Y1238 hz42 (hz-HC9 / hz-LC2), IgG1.3f (antibody, V domains shown) VH: QVQLVQSGAEVVKPGASVKVSCKASGYAFTNYLIEWVRQRPGQGLEWMGVINPGSGGTNYNEKFKGRVTLTADKSSSTAYMQLSRLRSDDTAVYFCARSQLGRRFDYWGQGTTVTVSS VL: DIQMTQSPSSLSASVGDRVTITCKASQDVRTGVAWYQQKPGKAPKLLIYSASYRNTGVPSRFSGSRSGTDFTFTISSLQPEDIATYYCQQHYSPPYTFGGGTKVEIK",binds
16,"humanized Y1238 hz43 (hz-HC9 / hz-LC3), IgG1.3f (antibody, V domains shown) VH: QVQLVQSGAEVVKPGASVKVSCKASGYAFTNYLIEWVRQRPGQGLEWMGVINPGSGGTNYNEKFKGRVTLTADKSSSTAYMQLSRLRSDDTAVYFCARSQLGRRFDYWGQGTTVTVSS VL: DIQMTQSPSSLSASVGDRVTITCKASQDVRTGVAWYQQKPGQSPKLLIYSASYRNTGVPSRFSGSRSGTDFTFTISSLQPEDIAVYYCQQHYSPPYTFGGGTKVEIK",binds
